This passage reports cell number change and AC50 results from PubChem BioAssay AID2685 (National Center for Advancing Translational Sciences (NCATS), 2010).

The test can be described thus: qHTS Assay for Lipid Storage Modulators in Drosophila S3 Cells.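 As to cell number change: cells counted by Cell Tracker Red CMTPX staining in the red channel.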 The note with it: BODIPY lipid droplet fluorescence, 18-24 h; for cell number change: measured here: cell count max response, cells fed with added oleic acid. In outline:
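Drosophila S3 cells loaded with oleic acid (400 uM, as added) and compounds at several concentrations; lipid droplets imaged by 488-nm laser-scanning cytometry, 500–530 nm intensity and object ratio to cell channel. Percent activity normalized to 20 uM Triacsin C.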
Background: Quantitative high-throughput screening tests each substance at several concentrations.

The mark [1] stands for this setting: measured here: cell number channel AC50, cells fed with added oleic acid.
Setting [2] is: measured here: lipid fluorescence (Fed channel) AC50, cells fed with added oleic acid.

The other results are listed elsewhere or left out. These are further read-outs of the screen, such as a control signal, another cell line or another target. No call is given for them. Most of these compounds were active or inconclusive in the main read-out, so they are no random draw. Words in brackets tell the shape of the fitted curve; partial curves, single points and poor fits give uncertain potencies.

As usually defined, the AC50 is the midpoint of the concentration-response curve, whichever way the signal moves. High values mean weaker potency, low ones greater potency. For `COc1ccc(/C=C/C(=O)N2CCC(C(N)=O)CC2)cc1S(=O)(=O)N1CCOCC1`, the cell number change is -106%. Moreover, the AC50 under setting [1] was 29.1 µM [falling, single point]. Further, the AC50 under setting [2] is 29.1 µM [falling, single point].

Regarding `O=C(O)C1CCCCC1C(=O)NCCc1c[nH]c2ccccc12` (stereo not given), the cell number change is -74.1%. Further, the AC50 under setting [1] is 23.1 µM [falling, partial curve, poor fit].

For the molecule `CCCc1nn2c(=O)cc(CSCC(=O)Nc3ccccc3OC)nc2s1`, the cell number change is -22.1%.

As for `O=C(Cn1ncc2c(=O)oc3ccccc3c21)N1CCN(c2ccccn2)CC1`, the cell number change was -21.3%. In addition, the AC50 under setting [2] was 0.00517 µM [falling, full curve, poor fit].

With `N#CCCn1cc(C(CC(=O)c2ccc(Br)cc2)C(=O)O)c2ccccc21` (stereo not given), the cell number change is -7.89%.

For the molecule `O=C(Nc1ccc(Oc2ccc(Cl)cc2)cc1)c1ncn[nH]1`, the cell number change was 0.498%. The AC50 under setting [2] is 0.82 µM [rising, full curve, poor fit].

As for `CC1CC(C)CN(C(=O)c2ccc(-c3ccc([N+](=O)[O-])cc3)o2)C1` (stereo not given), the cell number change was 50%. Besides, under setting [1], the AC50 was 2.06 µM [rising, full curve]. Under setting [2], the AC50 was 11.6 µM [falling, partial curve].

Consider `COc1ccccc1-n1nc(C)c(-c2ccccc2)c1N`, for which, under setting [2], the concentration at half-maximal activity (AC50) was 2.91 µM [rising, single point].

With `Nc1nc2nc(-c3ccc(Cl)cc3)cc(C(F)(F)F)n2n1`, the AC50 under setting [1] is 6.51 µM [rising, single point].

For `CCCS(=O)c1nc(C)cc(C)c1S(C)(=O)=O` (stereo not given), the cell number change is 18.9%. The AC50 under setting [2] was 0.00461 µM [falling, full curve, poor fit].

With `CCCCC(CC)C(=O)NCC(C)NC(=O)C(CC)CCCC` (stereo not given), the AC50 under setting [1] was 2.91 µM [falling, single point].

With `O=C(O)CCC(=O)Nc1sc2c(c1C(=O)NCc1ccccc1)CCCC2`, the cell number change is -16.9%.

Regarding `CCC(C)C(=O)Nc1cc(Cl)ccc1C(=O)O` (stereo not given), the cell number change is 33.4%. The AC50 under setting [1] was 0.164 µM [rising, full curve].

Regarding `O=C1OC(Nc2ccccn2)c2ccccc21` (stereo not given), the cell number change was -12.5%. Moreover, the half-maximal activity concentration (AC50) under setting [2] is 0.092 µM [falling, full curve, poor fit].

For the molecule `CNC(=O)C(=O)NCC1OCCN1S(=O)(=O)c1ccc(OC)c(OC)c1` (stereo not given), the cell number change stood at 14.8%. The AC50 under setting [1] is 3.98 µM [rising, single point]. In addition, under setting [2], the half-maximal activity concentration (AC50) is 4.47 µM [rising, single point].

Turning to `Cc1nc(S(=O)(=O)N2CCOCC2)c(C#N)c(C)c1Cl`, the cell number change is -8.53%. Also, the AC50 under setting [1] was 0.0651 µM [falling, full curve, poor fit].

Regarding `COc1cc(NC(=O)c2ccc(Br)o2)ccc1NC(=O)C(C)C`, the cell number change is 32.7%. Moreover, the AC50 under setting [1] is 7.31 µM [rising, partial curve, poor fit]. In addition, the AC50 under setting [2] is 1.16 µM [rising, single point].

`CC(C)C(OC(=O)c1nsc(Cl)c1Cl)C(=O)NCC1CCCO1` (stereo not given): the cell number change came out at 15.8%. In addition, under setting [2], the AC50 was 29.1 µM [rising, single point].

For the molecule `COc1ccc(N=c2scc(C)n2CCCN2CCCC2=O)cc1`, the AC50 is 6.51 µM [rising, single point] under setting [1] and 4.61 µM [rising, single point] under setting [2].

Turning to `Cc1cc(NC(=O)CSc2nnc(-c3ccc([N+](=O)[O-])cc3)o2)no1`, the cell number change was 1.29%. The AC50 under setting [2] is 0.517 µM [falling, partial curve].

As for `COc1cccc(NC(=O)CN(C)C(=O)c2c(C)nn(-c3ccccc3)c2Cl)c1`, the cell number change was determined as 11.1%. Moreover, the AC50 under setting [2] is 0.82 µM [rising, full curve].

On to `O=C(Nc1ncc2c(n1)-c1ccccc1OC2)c1ccc(Cl)cc1`, for which the cell number change is -7.47%. For the same molecule, under setting [2], the concentration at half-maximal activity (AC50) is 0.0651 µM [falling, full curve, poor fit].

For `COC(=O)CN1C(=O)C2(OCCCO2)c2ccccc21`, the cell number change stood at 30.6%. Further, the AC50 under setting [1] is 0.116 µM [rising, full curve].

Regarding `O=c1[nH]ncc(N2CCCC2)c1Cl`, the cell number change is -29.4%. Moreover, the AC50 under setting [2] is 29.1 µM [falling, single point].

With `CC1CCCN(C2=C(Cl)C(=O)N(c3cccc(Cl)c3)C2=O)C1` (stereo not given), the cell number change is -2.98%. Besides, the AC50 under setting [2] was 6.51 µM [rising, single point].

Regarding `Cc1ccc(N=Cc2cc(Br)cc(Cl)c2O)cc1`, the cell number change was found to be 5.46%. Also, the AC50 under setting [1] was 0.651 µM [falling, single point].

Regarding `O=C(CSc1ccccc1)NNC(=O)c1ccncc1`, the cell number change is -7.5%.

With `Cc1ccc(OCC(=O)N[C@@H](C)c2nnc3ccccn23)cc1C`, the cell number change was 16%. In addition, the half-maximal activity concentration (AC50) under setting [2] is 0.13 µM [rising, full curve, poor fit].

With `CCOc1ccc(/C=C/C(=O)NCCc2ccc(OC)c(OC)c2)cc1`, the cell number change was -43.8%. For the same molecule, under setting [1], the AC50 was 16.4 µM [falling, single point].

For the molecule `Cc1nc2scc(C)n2c(=O)c1S(=O)(=O)Nc1ccc(N2CCN(C(=O)C(C)C)CC2)cc1`, the cell number change came out at 5.2%. For the same molecule, under setting [2], the half-maximal activity concentration (AC50) is 2.06 µM [rising, partial curve].

For the molecule `Cc1ccc(CS(=O)Cc2ccc(C(=O)NC3CCCC(C)C3C)o2)cc1` (stereo not given), the cell number change was -16.1%. For the same molecule, the AC50 under setting [2] was 6.51 µM [rising, partial curve].

`CN(Cc1ccc(C(C)(C)C)cc1)C(=O)c1ccc2c(=O)n3c(nc2c1)CCC3`: the cell number change was 55.4%. Moreover, the AC50 under setting [1] was 13 µM [rising, partial curve].

As for `Cc1ccc(NC(=O)C2=CC(c3cccs3)=NS(=O)(=O)N2C)cc1`, the cell number change turned out to be 26.5%. The AC50 under setting [2] is 29.1 µM [falling, single point].

As to `CCN(C(=O)COC(=O)c1cc(C)oc1C)c1c(N)n(Cc2ccccc2)c(=O)[nH]c1=O`, the cell number change amounted to 11.6%. In addition, the concentration at half-maximal activity (AC50) under setting [1] is 2.59 µM [falling, single point].

Regarding `S=c1[nH]nc(-c2ccco2)n1/N=C/c1ccc(Cl)c(Cl)c1`, the cell number change is -51.5%. Also, the AC50 under setting [1] is 9.2 µM [falling, partial curve].

Consider `Cc1ccc(Nc2nc(-c3ccc(S(=O)(=O)N4CCOCC4)cc3)cs2)cc1Cl`, for which the cell number change turned out to be 9.75%. The AC50 under setting [2] was 16.4 µM [falling, partial curve, poor fit].

On to `CCOC(=O)Cn1c(=O)oc2cc(S(=O)(=O)N3CCN(c4ccccn4)CC3)ccc21`, for which the cell number change was -15%. Further, under setting [2], the AC50 was 2.59 µM [rising, full curve].

Regarding `COc1ccc(OCCC(=O)OCC(=O)NC(=O)NC2CCCCC2)cc1`, the cell number change is 2.94%. Further, the AC50 under setting [2] is 3.66 µM [rising, partial curve, poor fit].

Consider `Nc1cccc(Oc2c(F)c(F)c(Oc3cccc(N)c3)c(F)c2F)c1`, for which the cell number change is -25%. For the same molecule, the AC50 under setting [2] is 29.1 µM [falling, single point].
